Drawing on paper PMC8975834, this text covers binding for one substance.

By UniProt entry, the sequences of proteins in these tests, tags left out. Where a name states a change or a piece, a line headed by the entry shows the natural chain unless it says otherwise.
UniProt Q05655: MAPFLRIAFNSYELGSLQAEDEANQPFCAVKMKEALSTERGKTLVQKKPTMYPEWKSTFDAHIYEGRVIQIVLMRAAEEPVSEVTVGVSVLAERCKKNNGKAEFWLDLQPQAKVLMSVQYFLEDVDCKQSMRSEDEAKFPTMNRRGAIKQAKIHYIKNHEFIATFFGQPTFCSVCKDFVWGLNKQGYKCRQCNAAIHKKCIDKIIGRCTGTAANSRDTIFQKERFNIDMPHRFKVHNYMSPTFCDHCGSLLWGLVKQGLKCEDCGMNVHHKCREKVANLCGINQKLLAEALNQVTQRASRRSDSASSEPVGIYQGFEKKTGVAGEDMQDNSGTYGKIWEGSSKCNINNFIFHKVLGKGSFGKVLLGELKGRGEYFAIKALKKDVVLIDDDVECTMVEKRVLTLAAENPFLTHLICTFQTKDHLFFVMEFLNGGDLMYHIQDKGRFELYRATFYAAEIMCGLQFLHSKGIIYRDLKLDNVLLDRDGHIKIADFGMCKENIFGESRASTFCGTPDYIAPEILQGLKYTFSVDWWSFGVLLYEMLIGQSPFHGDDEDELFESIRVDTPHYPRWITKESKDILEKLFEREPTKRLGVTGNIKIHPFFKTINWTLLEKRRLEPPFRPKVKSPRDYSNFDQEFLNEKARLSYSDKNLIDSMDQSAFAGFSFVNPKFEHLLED

For the assay, the target named is T1, Unc-51-like kinase 1 (ULK1) (human (endogenous in HEL, SET-2, KT-1, U937)) (UniProt O75385).
T1 sequence: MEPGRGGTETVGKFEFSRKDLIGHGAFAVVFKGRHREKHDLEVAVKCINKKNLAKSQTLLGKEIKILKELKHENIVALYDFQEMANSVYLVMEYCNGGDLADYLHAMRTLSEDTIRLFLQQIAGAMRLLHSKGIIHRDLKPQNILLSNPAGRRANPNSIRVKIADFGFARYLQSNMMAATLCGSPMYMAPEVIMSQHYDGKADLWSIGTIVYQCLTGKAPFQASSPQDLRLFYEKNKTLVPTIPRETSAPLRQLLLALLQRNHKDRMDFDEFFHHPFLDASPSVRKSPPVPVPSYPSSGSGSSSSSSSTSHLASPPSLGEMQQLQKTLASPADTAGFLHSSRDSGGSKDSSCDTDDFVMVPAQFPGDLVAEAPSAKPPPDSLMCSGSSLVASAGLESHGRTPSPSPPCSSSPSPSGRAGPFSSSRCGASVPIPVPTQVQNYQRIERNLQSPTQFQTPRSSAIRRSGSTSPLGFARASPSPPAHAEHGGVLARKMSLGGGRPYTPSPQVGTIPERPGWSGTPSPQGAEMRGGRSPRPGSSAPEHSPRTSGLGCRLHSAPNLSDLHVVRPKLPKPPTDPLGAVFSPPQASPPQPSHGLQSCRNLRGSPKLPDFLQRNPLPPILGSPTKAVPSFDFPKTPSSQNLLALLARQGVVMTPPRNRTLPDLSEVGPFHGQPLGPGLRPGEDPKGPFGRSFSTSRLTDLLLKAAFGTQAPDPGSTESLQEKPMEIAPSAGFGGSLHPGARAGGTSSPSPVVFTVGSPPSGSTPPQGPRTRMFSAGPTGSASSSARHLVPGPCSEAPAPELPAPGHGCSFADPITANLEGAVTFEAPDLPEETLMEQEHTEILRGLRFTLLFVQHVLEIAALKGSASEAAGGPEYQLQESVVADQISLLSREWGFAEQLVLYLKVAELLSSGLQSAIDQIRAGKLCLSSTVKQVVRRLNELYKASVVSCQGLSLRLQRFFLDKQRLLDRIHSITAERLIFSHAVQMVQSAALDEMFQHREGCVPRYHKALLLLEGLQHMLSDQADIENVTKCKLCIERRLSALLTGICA
The assay is described as follows: co-IP; endogenous protein-ULK1 complexes precipitated from 500 ug total cell lysate with anti-ULK1 (D8H5) antibody and protein G Sepharose, overnight at 4 °C; NP-40 buffer (20 mM Hepes pH 7.4, 180 mM KCl, 0.2 mM EGTA, 10% glycerol, 0.1% NP-40); cells untreated or treated with IFNα or IFNβ (10^4 IU/mL) for 10 min; immunoblot.

These are yes or no findings as the source states them, for the method shown. In cells and extracts the contact can be indirect. Some results given as binding are weak or reduced against the parent protein; the word gives no strength.

For the substance “protein kinase C-delta (PKCδ) (from UniProt Q05655 1-676)”, the binding entry was “binds”.
